Patent publication US20160053277A1, “Compositions Having Dicamba Decarboxylase Activity and Methods of Use” (PIONEER HI-BRED INTERNATIONAL, INC., priority 2013, published 2016)
Substitutions are numbered along the chain they refer to. Names and notes keep the numbering of the source. Some of these results come from one statement about several compounds together.

B1: N214Q: point mutant of SEQ ID NO: 109 (protein)
chain: MAQGKVALEEHFAIPETLQDSAGFVPGDYWKELQHRLLDIQDTRLKLMDAHGIETMILSLNAPAVQAIPDRRKAIEIARRANDVLAEECAKRPDRFLAFAALPLQDPDAATEELQRCVNDLGFVGALVNGFSQEGDGQTPLYYDLPQYRPFWGEVEKLDVPFYLHPRNPLPQDSRIYDGHPWLLGPTWAFAQETAVHALRLMASGLFDEHPRLQIILGHMGEGLPYMMWRIDHRVAWVKLPPRYPAKRRFMDYFNENFHITTSGNFRTQTLIDAILEIGADRILFSTDWPFENIDHASDWFNATSIAEADRVKIGRTNARRLFKLDGA
modifications: Dicamba decarboxylase variant clone: DC.4.032
B2: V235I: point mutant of SEQ ID NO: 109 (protein)
chain: B1 chain with Q214N, V235I
modifications: Dicamba decarboxylase variant clone: DC.4.032
B3: N302A: point mutant of SEQ ID NO: 109 (protein)
chain: B1 chain with Q214N, N302A
modifications: Dicamba decarboxylase variant clone: DC.4.032

experiment: Saturation mutagenesis of SEQ ID NO:109: dicamba decarboxylation activity of point mutants (carbon dioxide released); details: point mutation in SEQ ID NO:109

| Molecule | dicamba decarboxylation activity compared to SEQ ID NO:109 |
| --- | --- |
| B1 | greater than 1.8 fold |
| B2 | greater than 1.8 fold |
| B3 | greater than 1.8 fold |
